Laboratory results: PubChem BioAssay AID652243 (Drosophila RNAi Screening Center, 2013)
Test: 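Fly genes required for human androgen receptor driven transcription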 (primary screen). System: Drosophila S2R+ cells. Knock-down reagent: long dsRNA against Drosophila genes. Duration: 72 h (48 h, then 24 h hormone). Conditions: synthetic androgen R1881 at 10 nM for 24 h. Read-out: 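Firefly light from an androgen-responsive reporter and Renilla control light per well, raw and unnormalised, for each of two replicates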. Scale: firefly reporter light: higher = more light from androgen-responsive reporter; Renilla control light: higher = more constitutive control signal (cell number, transfection). Call rule: 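Across duplicate plates, a knock-down whose log firefly/Renilla ratio shifted a set fold down or up from the GFP/LacZ control mean was a hit; the downward cut appears as both 1.5 and 3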. Calls: active = hit: reporter lowered or raised; inactive = no hit.
The deposit covers about 24,000 reagents; shown is a random part of those that have a named target and a result. Over the whole deposit, 246 (1%) are marked active. 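Plates not normalised; calls are printed but the firefly/Renilla ratio behind them is not deposited; fold cut for lowering reported inconsistently.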 Raw values are not corrected between plates. The numbers tell different reagents against one gene apart. No sequences are given here. Not given: the amount of reagent.

CG42340 #1
- firefly reporter light, replicate 1: 1.05e5
- firefly reporter light, replicate 2: 1.36e5
- Renilla control light, replicate 1: 1.94e6
- Renilla control light, replicate 2: 2.55e6
- call: inactive

CG42340 #2
- firefly reporter light, replicate 1: 3.62e5
- firefly reporter light, replicate 2: 4.51e5
- Renilla control light, replicate 1: 3.83e6
- Renilla control light, replicate 2: 3.99e6
- call: inactive

CG42340 #3
- firefly reporter light, replicate 1: 1.14e5
- firefly reporter light, replicate 2: 1.26e5
- Renilla control light, replicate 1: 2.97e6
- Renilla control light, replicate 2: 2.38e6
- call: inactive

CG42340 #4
- firefly reporter light, replicate 1: 8.07e5
- firefly reporter light, replicate 2: 6.59e5
- Renilla control light, replicate 1: 2.06e6
- Renilla control light, replicate 2: 1.82e6
- call: inactive

CG42340 #5
- firefly reporter light, replicate 1: 6.79e5
- firefly reporter light, replicate 2: 9.00e5
- Renilla control light, replicate 1: 7.11e5
- Renilla control light, replicate 2: 1.06e6
- call: inactive

Pi4KIIalpha (Phosphatidylinositol 4-kinase II alpha) #1
- firefly reporter light, replicate 1: 46285
- firefly reporter light, replicate 2: 45974
- Renilla control light, replicate 1: 3.47e5
- Renilla control light, replicate 2: 3.96e5
- call: inactive

Pi4KIIalpha (Phosphatidylinositol 4-kinase II alpha) #2
- firefly reporter light, replicate 1: 83206
- firefly reporter light, replicate 2: 63821
- Renilla control light, replicate 1: 2.03e6
- Renilla control light, replicate 2: 1.57e6
- call: active

Pi4KIIalpha (Phosphatidylinositol 4-kinase II alpha) #3
- firefly reporter light, replicate 1: 3.97e5
- firefly reporter light, replicate 2: 6.88e5
- Renilla control light, replicate 1: 1.27e6
- Renilla control light, replicate 2: 1.38e6
- call: inactive

Pi4KIIalpha (Phosphatidylinositol 4-kinase II alpha) #4
- call: inactive

Continued (2 carried over from the part before).
Pi4KIIalpha (Phosphatidylinositol 4-kinase II alpha) #3
- firefly reporter light, replicate 1: 3.97e5
- firefly reporter light, replicate 2: 6.88e5
- Renilla control light, replicate 1: 1.27e6
- Renilla control light, replicate 2: 1.38e6
- call: inactive

Pi4KIIalpha (Phosphatidylinositol 4-kinase II alpha) #4
- call: inactive

CG15406 #1
- firefly reporter light, replicate 1: 98279
- firefly reporter light, replicate 2: 1.09e5
- Renilla control light, replicate 1: 8.58e5
- Renilla control light, replicate 2: 9.40e5
- call: inactive

CG15406 #2
- firefly reporter light, replicate 1: 4.38e5
- firefly reporter light, replicate 2: 4.27e5
- Renilla control light, replicate 1: 1.90e6
- Renilla control light, replicate 2: 1.35e6
- call: inactive

SerRS (Seryl-tRNA synthetase)
- firefly reporter light, replicate 1: 8.23e5
- firefly reporter light, replicate 2: 6.15e5
- Renilla control light, replicate 1: 2.95e6
- Renilla control light, replicate 2: 2.13e6
- call: inactive

CG31730
- firefly reporter light, replicate 1: 2.83e5
- firefly reporter light, replicate 2: 2.34e5
- Renilla control light, replicate 1: 6.25e5
- Renilla control light, replicate 2: 5.21e5
- call: inactive

Cyp4ad1 (Cytochrome P450 4ad1)
- firefly reporter light, replicate 1: 1.09e6
- firefly reporter light, replicate 2: 1.31e6
- Renilla control light, replicate 1: 2.01e6
- Renilla control light, replicate 2: 1.93e6
- call: inactive
